Data taken from PubChem BioAssay AID1224904, deposited by Broad Institute (2016).

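293T-iDUX4 cells carrying a ZSCAN4-driven Gaussia luciferase and a tet-on Italica luciferase control; the gap between the two luminescence signals is read after 24 h.
The test concentration is not given here.
Percent difference between the Gaussia and Italica channels; more negative values mean more selective suppression of the DUX4 reporter, and higher values mean less activity.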

Values are in %.
How 0% and 100% were set is not given here.
Common to all entries: measured here: selective DUX4 reporter inhibition.
This is a side read-out of the assay, for part of the compounds, not drawn at random.

compound | Gaussia minus Italica difference (%)
OC[C@H]1[C@@H](c2ccccc2)C2(CN(Cc3ccccc3F)C2)N1Cc1ccccc1F | -11.07
O=C(C[C@H]1CC[C@@H]2[C@H](COC[C@H](O)CN2Cc2nccs2)O1)NCc1ccc(Oc2ccccc2)cc1 | -1.127
COc1cccc(-c2ccc3c(c2)[C@@H]2[C@@H](CCN2C(=O)c2ccc(F)cc2)[C@H](CO)N3C)c1 | 23.09
N#C[C@H]1[C@H](c2ccccc2C2=CCCCC2)[C@@H](CO)N1S(=O)(=O)c1ccccc1 | -0.7639
Cc1ccccc1S(=O)(=O)N1CC(=O)N2[C@H](C1)[C@H](c1ccc(C#CC3CC3)cc1)[C@@H]2CO | -13.79
O=C(c1ccccc1F)N1CC[C@@H]2[C@H](CO)Nc3ccc(-c4ccc(F)cc4)cc3[C@@H]21 | -8.569
CCCC(=O)Nc1ccc2c(c1)C(=O)N(C)C[C@H](OC)[C@@H](C)CN(Cc1ccc(F)cc1)[C@@H](C)CO2 | 3.891
CN(C)CC(=O)N1[C@@H]2Cn3c(ccc(-c4ccccc4)c3=O)[C@H]1[C@@H](C(=O)N1CCOCC1)[C@@H]2CO | -8.417
COc1ccc2c3c([nH]c2c1)[C@H](CO)N(Cc1ccccc1OC)CC31CN(S(C)(=O)=O)C1 | 0.6399
O=C(c1ccc(F)cc1)N1C[C@@H]2N[C@H](C1)C2c1ccc(/C=C/c2ccccc2)cc1 (some centres not stated) | 9.591
C[C@H]1CN([C@@H](C)CO)C(=O)c2c(c3ccccc3n2C)-c2ccccc2CO[C@H]1CN(C)C(=O)Nc1ccccc1C(F)(F)F | 5.668
O=C(C[C@H]1CC[C@H]2[C@@H](COC[C@H](O)CN2Cc2cc(F)ccc2F)O1)NCc1ccc(Oc2ccccc2)cc1 | -16.25
O=C(C[C@@H]1CC[C@@H]2[C@H](COC[C@H](O)CN2C(=O)c2ccccc2)O1)NCc1ccc(-c2ccccc2)cc1 | -15.56
O=C(C[C@@H]1CC[C@H]2[C@@H](COC[C@@H](O)CN2CC2CCCCC2)O1)NCc1ccc(Cl)cc1 | -3.997
Cc1ccccc1S(=O)(=O)N1CCCCN2[C@H](CO)[C@@H](c3ccc(C#CCN(C)C)cc3)[C@@H]2C1 | -13.6
CN1c2ccc(C#Cc3cccnc3)cc2[C@H]2[C@H](CCN2S(=O)(=O)c2cccc(F)c2)[C@@H]1CO | -20.84
O=C(c1ccc2c(c1)OCO2)N1CC(=O)N2[C@H](CO)[C@H](c3ccc(C#CC4CCCC4)cc3)[C@@H]2C1 | 2.945
COc1ccccc1NC(=O)N1CCCCN2[C@H](CO)[C@@H](c3ccc(-c4cccc(C#N)c4)cc3)[C@@H]2C1 | -13.52
O=C(C[C@@H]1CC[C@H]2[C@@H](COC[C@H](O)CN2Cc2ccc(Oc3ccccc3)cc2)O1)N1CCCCC1 | -10.07
CCS(=O)(=O)N1CC2(C1)[C@H](c1ccccc1)[C@H](CO)N2CC1CCCC1 | -8.7
C[C@H](C(=O)N(C)C[C@@H]1OCc2ccccc2-c2ccccc2C(=O)N([C@@H](C)CO)C[C@@H]1C)c1ccccc1 | 6.231
COc1ccc2c3c([nH]c2c1)[C@H](CO)N(C(=O)Nc1cccc(F)c1)CC31CN(S(=O)(=O)c2ccccc2)C1 | -0.4883
CO[C@@H]1CN(C)C(=O)c2ccc(NS(=O)(=O)c3cccc(F)c3)cc2OC[C@@H](C)NC[C@H]1C | -11.43
CN1c2ccc(-c3ccccc3F)cc2[C@@H]2[C@@H](CCN2C(=O)Nc2ccc(F)cc2)[C@@H]1CO | -1.584
O=C(Cc1cccnc1)N1CC(=O)N2[C@H](C1)[C@@H](c1ccc(/C=C/c3ccccc3)cc1)[C@@H]2CO | -3.427
Cc1ccc(S(=O)(=O)N2C[C@@H](O)COC[C@@H]3O[C@@H](CC(=O)N[C@@H]4CCN(Cc5ccccc5)C4)CC[C@H]32)cc1 | -2.328
COc1ccc2c3c([nH]c2c1)[C@H](CO)N(Cc1cc(F)ccc1F)CC31CN(C(C)=O)C1 | 0.3198
C[C@@H]1CN([C@H](C)CO)C(=O)c2c(c3ccccc3n2C)-c2ccccc2CO[C@@H]1CN(C)S(=O)(=O)c1ccccc1F | -5.689
O=C(C[C@H]1CC[C@H]2[C@@H](COC[C@@H](O)CN2Cc2cc(F)cc(F)c2)O1)Nc1nccs1 | -2.709
CN1CCN(C(=O)C[C@@H]2C[C@@H]3c4cc(NC(=O)Nc5ccc(C(F)(F)F)cc5)ccc4O[C@@H]3[C@@H](CO)O2)CC1 | -1.747
C[C@H]1CN([C@@H](C)CO)C(=O)c2c(c3ccccc3n2C)-c2ccccc2CO[C@H]1CN(C)Cc1cccc(F)c1 | 10.17
O=C(c1cnccn1)N1CC(=O)N2[C@H](CO)[C@@H](c3ccc(/C=C/c4ccccc4)cc3)[C@@H]2C1 | -5.513
CN1c2ccc(C#Cc3cccnc3)cc2[C@@H]2[C@@H](CCN2S(=O)(=O)c2cccc(F)c2)[C@H]1CO | -8.584
O=C(C[C@H]1CC[C@H]2[C@@H](COC[C@H](O)CN2C(=O)c2cccnc2)O1)Nc1ccc(-c2ccccc2)cc1 | -2.523
CC(C)CC#Cc1ccc([C@@H]2[C@@H](CO)N3C(=O)CN(C(=O)c4cccc(F)c4)C[C@@H]23)cc1 | -11.98
CCCNC(=O)N1CC2(CN(S(=O)(=O)c3cccc(OC)c3)C2)c2c(n(C)c3cc(OC)ccc23)[C@@H]1CO | -4.55
C[C@H]1CN([C@@H](C)CO)C(=O)c2c(c3ccccc3n2C)-c2ccccc2CO[C@H]1CN(C)Cc1ccc2c(c1)OCCN2C | -5.951
N#Cc1cccc(-c2ccc3c(c2)[C@@H]2[C@@H](CCN2S(=O)(=O)c2ccc(F)cc2)[C@H](CO)N3)c1 | 4.686
COc1ccc(C#Cc2ccc([C@@H]3[C@H]4CN(C(=O)c5cccnc5)CC(=O)N4[C@H]3CO)cc2)cc1 | 0.345
N#Cc1ccc(-c2ccc3c(c2)[C@H]2[C@H](CCN2C(=O)c2ccc(F)cc2)[C@@H](CO)N3)cc1 | -24.51
O=C(Nc1ccc(F)cc1)N1CCCCN2[C@H](C1)[C@H](c1ccc(C#Cc3ccccc3)cc1)[C@@H]2CO | 40.57
O=S(=O)(c1ccccc1F)N1C[C@@H]2N[C@H](C1)C2c1ccc(/C=C/c2ccccc2)cc1 (some centres not stated) | -22.13
N#C[C@@H]1[C@H](c2ccccc2-c2cccc(F)c2)[C@H](CO)N1C(=O)Nc1cc(F)ccc1F | 0.4559
O=C(C[C@@H]1CC[C@H]2[C@@H](COC[C@H](O)CN2S(=O)(=O)c2ccc(Cl)cc2)O1)NCc1ccc(Cl)c(Cl)c1 | -0.9864
O=C(C[C@H]1CC[C@@H]2[C@H](COC[C@H](O)CN2Cc2ccc(Oc3ccccc3)cc2)O1)N1CCOCC1 | -9.268
COc1cccc(-c2ccc3c(c2)[C@@H]2[C@@H](CCN2C(=O)c2ccccn2)[C@@H](CO)N3C)c1 | -13.88
COc1ccc2c3c([nH]c2c1)[C@@H](CO)N(Cc1ccncc1)CC31CN(Cc2ccc(-c3ccccn3)cc2)C1 | -11.69
C[C@H](CO)N1C[C@H](C)[C@H](CN(C)Cc2ccc(Oc3ccccc3)cc2)OCc2cnnn2CCCC1=O | -11.1
O=C(C[C@H]1CC[C@@H]2[C@H](COC[C@@H](O)CN2Cc2nccs2)O1)NCc1ccc(Oc2ccccc2)cc1 | 1.203
C[C@H](CO)N1C[C@H](C)[C@H](CN(C)C(=O)Nc2ccc(-c3ccccc3)cc2)OCc2ccccc2-c2c(n(C)c3ccccc23)C1=O | -6.035
O=C(C[C@@H]1CC[C@H]2[C@@H](COC[C@H](O)CN2Cc2cc(F)ccc2F)O1)N[C@@H]1CCN(Cc2ccccc2)C1 | -8.742
CN1c2ccc(C#Cc3cccnc3)cc2[C@@H]2[C@@H](CCN2C(=O)C2CCCCC2)[C@H]1CO | -17.55
O=C(C[C@@H]1CC[C@@H]2[C@H](COC[C@@H](O)CN2Cc2cc(F)ccc2F)O1)NCc1ccc(Cl)cc1 | -7.175
C[C@H](CO)N1C[C@H](C)[C@H](CN(C)S(=O)(=O)c2ccccc2C#N)OCc2ccccc2-c2c(n(C)c3ccccc23)C1=O | 3.415
O=C(C[C@@H]1CC[C@H]2[C@@H](COC[C@H](O)CN2Cc2cc(F)ccc2F)O1)N[C@H]1CCN(Cc2ccccc2)C1 | -12.23
O=C(CN1CCOCC1)N1CCCCN2[C@H](C1)[C@H](c1ccc(/C=C/c3ccccc3)cc1)[C@@H]2CO | -1.589

Some entries from above, unchanged:

{"compound": "C[C@H]1CN([C@@H](C)CO)C(=O)c2c(c3ccccc3n2C)-c2ccccc2CO[C@H]1CN(C)C(=O)Nc1ccccc1C(F)(F)F", "Gaussia minus Italica difference (%)": "5.668"}
{"compound": "CN1c2ccc(-c3ccccc3F)cc2[C@@H]2[C@@H](CCN2C(=O)Nc2ccc(F)cc2)[C@@H]1CO", "Gaussia minus Italica difference (%)": "-1.584"}
{"compound": "CCS(=O)(=O)N1CC2(C1)[C@H](c1ccccc1)[C@H](CO)N2CC1CCCC1", "Gaussia minus Italica difference (%)": "-8.7"}
{"compound": "O=C(c1ccccc1F)N1CC[C@@H]2[C@H](CO)Nc3ccc(-c4ccc(F)cc4)cc3[C@@H]21", "Gaussia minus Italica difference (%)": "-8.569"}
{"compound": "O=S(=O)(c1ccccc1F)N1C[C@@H]2N[C@H](C1)C2c1ccc(/C=C/c2ccccc2)cc1", "stereo": "some centres not stated", "Gaussia minus Italica difference (%)": "-22.13"}
{"compound": "O=C(C[C@@H]1CC[C@H]2[C@@H](COC[C@H](O)CN2Cc2cc(F)ccc2F)O1)N[C@@H]1CCN(Cc2ccccc2)C1", "Gaussia minus Italica difference (%)": "-8.742"}